PubChem BioAssay AID485353 (National Center for Advancing Translational Sciences (NCATS), 2010)
The whole screen tested about 330,000 compounds, of which about 610 (0.18%) were called active. The shares of active, inactive and inconclusive entries below differ from those in the screen. Calls follow the shape of the full dose curve. Where the call is inconclusive, the potency comes from a doubtful curve fit.

Test: qHTS of Yeast-based Assay for SARS-CoV PLP; also: nearly all actives have a fitted effect of over 55% in size
Conditions: S. cerevisiae expressing SARS-CoV PLpro; Potency: growth rescue; series mostly up to 32.9 µM
Potency is read from the fitted curve at half-maximal effect.

Row | SMILES | Potency
1 | O=C(COC(=O)Cc1c(Cl)cccc1Cl)NCCC1=CCCCC1 | inconclusive: 5.01 µM [activator, partial curve]
2 | O=C(Nc1ccccc1Cl)c1ccccc1Cc1ccccc1 | inconclusive: 1.41 µM [activator, partial curve]
3 | O=C(Nc1nonc1NC(=O)c1cccs1)c1cccs1 | inactive
4 | Cc1ccc(S(=O)(=O)c2nc(NCCN(C)C)sc2Cl)cc1 | inconclusive: 4.47 µM [activator, single point]
5 | CCc1nn(C(CC)C(=O)NCc2cccs2)c(=O)c2cc3occc3n12 (stereo not drawn) | inconclusive: 10 µM [activator, single point]
6 | O=C(OCc1ccccc1)c1ccc2c(c1)-c1ccccc1C2=O | active: 15.8 µM
7 | CCOc1ccc(S(=O)(=O)N2CCc3ccccc3C2)cc1 | inconclusive: 3.55 µM [activator, single point]
8 | Cc1ccc(-n2cc(CNCCN3CCOC3=O)c(-c3cccc(C)c3)n2)cc1 | inactive
9 | O=C(COC(=O)/C=C/c1cccc(Br)c1)NCCC1=CCCCC1 | inconclusive: 1.58 µM [activator, partial curve, poor fit]
10 | CC1CCCN(C(=O)c2ccc(OC3CCN(CCc4ccccc4)CC3)cc2)C1 (stereo not drawn) | inconclusive: 4.47 µM [activator, single point]
11 | CC1(CC(=O)N/N=C/c2ccc(-c3ccc(C(=O)O)cc3)o2)OCCO1 | inactive
12 | CCOc1cc(CNCCc2ccc(S(N)(=O)=O)cc2)ccc1OCc1ccc(Cl)cc1 | inconclusive: 11.2 µM [activator, single point]
13 | Cc1nn(C)c(C(=O)N/N=C/c2cccc3ccccc23)c1Cl | inconclusive: 2.82 µM [activator, partial curve]
14 | O=c1cc(CN2CCN(c3cccc(Cl)c3)CC2)c2cc3c(cc2o1)CCCC3 | inconclusive: 17.8 µM [activator, single point]
15 | OC1(c2ccc(F)cc2)CCN(Cc2nnnn2Cc2cccs2)CC1 | inactive
16 | COc1ccc2cc(C(=O)O)ccc2c1 | inconclusive: 3.55 µM [activator, single point]
17 | O=C(Cn1nnc(-c2ccccc2)n1)Nc1ccc2c(c1)OCO2 | inactive
18 | O=C(NCCSc1ccc(Cl)cc1)c1ccc(CN2CCOCC2)cc1 | inactive
19 | Cc1cccc(C=Nc2ccc3c4c(cccc24)CC3)c1O | inconclusive: 15.8 µM [activator, single point]
20 | CCOC(=O)N1CCC(NC(=O)C2CCCN(c3nc4ccccc4o3)C2)CC1 (stereo not drawn) | inconclusive: 10 µM [activator, single point]
21 | O=C(Nc1ccc(Cl)c(Cl)c1)c1cccc(S(=O)(=O)NCc2cccnc2)c1 | inactive
22 | CCCC(=O)NC(c1ccc(C(C)C)cc1)c1ccc2cccnc2c1O (stereo not drawn) | inconclusive: 10 µM [activator, single point]
23 | CCCCn1c(N)c(N(CCOC)C(=O)CN2C(=O)c3ccccc3C2=O)c(=O)[nH]c1=O | inconclusive: 3.98 µM [activator, single point]
24 | CCN(CC)CC(=O)NC1CC(C)(C)Cc2c1cnn2-c1ccc(F)cc1 (stereo not drawn) | inconclusive: 20 µM [activator, single point]
25 | CCCNCc1cc(Br)ccc1OCC(=O)NCCc1ccccc1 | inconclusive: 10 µM [activator, single point]

Row | SMILES | Potency
26 | O=C(CSc1nnc(-c2ccccc2)o1)NC1CCCCC1 | inconclusive: 2.82 µM [activator, single point]
27 | CC(=O)N1CCN(CC(=O)Nc2cc(S(=O)(=O)N3CCCCC3)ccc2C)CC1 | inactive
28 | O=C(O)c1ccccc1C(=O)O | inconclusive: 3.98 µM [activator, single point]
29 | COc1ccc(C(=O)N2CCC(C(=O)c3ccc(F)cc3)CC2)cc1 | inconclusive: 11.2 µM [activator, partial curve]
30 | O=C(CN(Cc1cccs1)C(=O)CNS(=O)(=O)c1ccc(F)cc1)NCc1ccco1 | inconclusive: 2.82 µM [activator, partial curve]
31 | CCOc1ccc(NC(=S)NC(C)c2cccs2)cc1 (stereo not drawn) | inconclusive: 17.8 µM [activator, single point]
32 | Cc1cccc(-n2c(C)c(C)c3c(N)ncnc32)c1 | inactive
33 | Cc1c(C(=O)N2CCCCCC2)c(S(=O)(=O)Nc2ccccc2F)c(C)n1C | inconclusive: 1.41 µM [activator, full curve]
34 | CCOc1cc(C2C(C#N)=C(N)Oc3c2c(=O)oc2ccccc32)ccc1OC(=O)c1cccs1 (stereo not drawn) | inactive
35 | O=C(NCc1ccc(Cl)cc1)C1CCN(C(=O)Cc2ccccc2)CC1 | inconclusive: 4.47 µM [activator, single point]
36 | Cc1c(C)n(C)c2ccc(C(=O)Nc3cccc4ccccc34)cc12 | inconclusive: 3.98 µM [activator, single point]
37 | O=C(N/N=C/c1ccc(C(F)(F)F)cc1)c1ccc(O)cc1 | inconclusive: 3.98 µM [activator, single point]
38 | CCCOc1cccc(C2C(C(=O)c3cc4ccccc4o3)=C(O)C(=O)N2c2cc(C)on2)c1 (stereo not drawn) | inconclusive: 3.16 µM [activator, single point]
39 | COC(=O)c1cc(S(=O)(=O)N2CCCCC2)c[nH]1 | inactive
40 | CC1CCCCC1NC(=S)NC(=O)c1ccccc1Br (stereo not drawn) | inconclusive: 4.47 µM [activator, partial curve]
41 | c1ccc(CNc2nc(CN3CCOCC3)nc3scc(-c4ccccc4)c23)cc1 | inactive
42 | Cc1cccc(C)c1NC(=O)Cn1nc(-c2ccc(Cl)s2)ccc1=O | inactive
43 | CCn1nc(C)c(/C=N/NC(=O)c2ccoc2C)c1C | inconclusive: 3.98 µM [activator, single point]
44 | Clc1ccc(-c2cc(-c3ccccc3)on2)cc1 | inactive
45 | S=c1[nH]c2ccc(Cc3ccc4[nH]c(=S)[nH]c4c3)cc2[nH]1 | inconclusive: 3.98 µM [activator, single point]
46 | O=C(O)C1Nc2c(O)cccc2C2C=CCC12 (stereo not drawn) | inconclusive: 1.78 µM [activator, partial curve]
47 | O=C(CSc1nnc(-c2ccccc2)n1C1CCCCC1)Nc1ccc(S(=O)(=O)Nc2ccccn2)cc1 | inactive
48 | C/C(=N\NC(=O)c1ccc(CN(C)S(=O)(=O)c2ccc(C)cc2)cc1)c1ccc(OC(F)F)cc1 | inconclusive: 20 µM [activator, single point]
49 | O=C(c1cccs1)N1CCc2c([nH]c3ccccc23)C1c1ccc(Cl)cc1 (stereo not drawn) | inactive
50 | O=C(c1ccco1)N1CCN(C(=O)c2ccccc2OCc2ccc(Cl)cc2)CC1 | inconclusive: 20 µM [activator, single point]

Looked up one by one from the list above, 4 records:
Row | SMILES | Potency
33 | Cc1c(C(=O)N2CCCCCC2)c(S(=O)(=O)Nc2ccccc2F)c(C)n1C | inconclusive: 1.41 µM [activator, full curve]
34 | CCOc1cc(C2C(C#N)=C(N)Oc3c2c(=O)oc2ccccc32)ccc1OC(=O)c1cccs1 (stereo not drawn) | inactive
43 | CCn1nc(C)c(/C=N/NC(=O)c2ccoc2C)c1C | inconclusive: 3.98 µM [activator, single point]
41 | c1ccc(CNc2nc(CN3CCOCC3)nc3scc(-c4ccccc4)c23)cc1 | inactive

(continued)

Row | SMILES | Potency
51 | Cc1ccccc1OC(C)C(=O)N1CCN(c2ccccn2)CC1 (stereo not drawn) | inactive
52 | Nc1nnnn1CC(=O)N/N=C/c1ccccn1 | inactive
53 | O=S(=O)(c1ccc(Cl)c(C(F)(F)F)c1)N1CCN(CC(O)COCC2CCCO2)CC1 (stereo not drawn) | inconclusive: 22.4 µM [activator, single point]
54 | O=C1Cc2ccccc2C(=O)N1c1cccc(Cl)c1 | inactive
55 | O=C(O)c1ccc(OS(=O)(=O)c2ccc(Cl)s2)c(Cl)c1 | inconclusive: 20 µM [activator, single point]
56 | O=C(c1cccnc1)C1CCCN(Cc2nc(Cc3ccccc3)no2)C1 (stereo not drawn) | inactive
57 | CCN1CCN(CCCNC(=O)CCCn2nc(C)c3sc4ccccc4c3c2=O)CC1 | inconclusive: 3.55 µM [activator, full curve]
58 | Cc1c(C(N)=O)sc2ncn(CC(=O)N3CCC(C)CC3)c(=O)c12 | inactive
59 | CCOC(=O)c1ccc(N2CN(CC)CNC2=S)cc1 | active: 10 µM
60 | Cc1cc(-n2ccnc2)n2c(nc3ccccc32)c1C#N | inconclusive: 4.47 µM [activator, single point]
61 | O=C(O)c1cc(C2CC2)nn1-c1ccccc1 | inconclusive: 3.98 µM [activator, single point]
62 | COc1ccc(CC(=O)NC(C)c2nnc(SCC(=O)c3ccc(Br)cc3)n2C)cc1 (stereo not drawn) | inconclusive: 10 µM [activator, partial curve]
63 | CCOc1ccccc1Nc1nnc(SCc2nnc(-c3cc(OC)c(OC)c(OC)c3)o2)s1 | inconclusive: 20 µM [activator, single point]
64 | O/N=C(\c1ccccn1)C1CC1c1ccccc1 (stereo not drawn) | inactive
65 | COc1ccc(N2CCN(Cc3cc(=O)oc4cc5c(cc34)CCCC5)CC2)cc1 | inconclusive: 14.1 µM [activator, single point]
66 | CSCCC(NC(=O)c1ccccc1Cl)C(=O)NC1CCN(Cc2ccccc2)CC1 (stereo not drawn) | inconclusive: 0.447 µM [activator, full curve]
67 | CCNCc1cc(Cl)c(OCc2ccccc2)c(OCC)c1 | inactive
68 | C/C(=N\NC(=O)c1ccccc1)c1c(C)[nH]n(-c2ccccc2)c1=O | active: 6.31 µM
69 | CCOC(=O)[C@H]1[C@H]2COc3ccc(OC)cc3[C@@H]2N2C(=O)CN(Cc3ccc(OC)cc3)C(=O)[C@@]12C | inconclusive: 2 µM [activator, full curve]
70 | O=C(O)c1nonc1-c1nonc1C(=O)O | inconclusive: 20 µM [activator, single point]
71 | Cc1ccnc2nc(C(=O)OCC(=O)Nc3ccc4c(c3)OCCO4)nn12 | inconclusive: 4.47 µM [activator, single point]
72 | Cc1ccc(C(=O)N2CCN(C(=O)c3ccccc3)C2c2ccc(N(C)C)cc2)cc1 (stereo not drawn) | inconclusive: 7.08 µM [activator, partial curve]
73 | CSC1=C(C#N)C(c2cccs2)CC(=O)N1C (stereo not drawn) | inconclusive: 2.82 µM [activator, partial curve]
